# Article PMC7819943, “Rice protein-binding microarrays: a tool to detect cis-acting elements near promoter regions in rice”
# Sequences of proteins named here, by UniProt entry; tags and fusion partners are left off.
# UniProt Q0JBA9, entry or part of it: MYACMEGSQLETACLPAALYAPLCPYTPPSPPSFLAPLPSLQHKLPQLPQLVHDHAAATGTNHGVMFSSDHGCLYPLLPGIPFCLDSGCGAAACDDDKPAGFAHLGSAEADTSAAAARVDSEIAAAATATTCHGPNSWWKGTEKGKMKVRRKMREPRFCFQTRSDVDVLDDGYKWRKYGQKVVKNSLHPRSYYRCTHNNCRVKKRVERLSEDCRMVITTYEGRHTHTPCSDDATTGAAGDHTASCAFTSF
# Some of the results follow.
# Biological target: OsWRKY34 (Oryza sativa, UniProt Q0JBA9 1-250)
# Experiment: protein-binding microarray (RPBM); PBS, 2% BSA, 51.3 ng/ul salmon testes DNA, 50 uM zinc acetate, 200 nM TF, 25 C, 1 h; high values mean tight binding
# Settings: protein: recombinant; tags: N-terminal polyhistidine and DsRed monomer fusion (pET32a); label: CyDye5-dUTP incorporated in the synthesized complementary strand; 3' TTTTT single-stranded linker to array surface; dsDNA, one strand shown
# How it was run: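 Transcription factors, each fused N-terminally to a polyhistidine tag and DsRed, were expressed in E. coli BL21-CodonPlus and purified on Ni–NTA. A custom Agilent array was made double-stranded by primer extension with Cy5-dUTP and blocked with 2% BSA. It was incubated with 200 nM protein in PBS, 2% BSA, salmon testes DNA and 50 µM zinc acetate at 25 °C for 1 h, then washed. The binding signal is per-feature fluorescence intensity (arbitrary units) read on an Axon 4000B scanner.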
row,Sequence,binding signal
1,CCACCGACCACCCAATCCGTGTCATCCCCATCCGCACCATCGGAGTCACCTAGTGCAG,8720 fluorescence intensity (a.u.)
2,ACATGTTGGATTTTTATACCCGTCACTGGTGACCTTAAAACGGAGTCACCTAGTGCAG,8120 fluorescence intensity (a.u.)
3,ATCGCGGAAGGTGGTGGACTGGTGGTGGGCGCGCGCGCGCCGGAGTCACCTAGTGCAG,8570 fluorescence intensity (a.u.)
4,GTTGCGGGGTGGGTGGTGGCGTTGCGGGAGGAGGAGGGAGCGGAGTCACCTAGTGCAG,23100 fluorescence intensity (a.u.)
5,AAATGTAGCGTCAAGTAACACGTGTATTCACATTTACGATCGGAGTCACCTAGTGCAG,8240 fluorescence intensity (a.u.)
6,GGGTAACCAACAAAACCATACTGCGACACTCCACACCGTTCGGAGTCACCTAGTGCAG,8090 fluorescence intensity (a.u.)
7,GACCTCACCGTCTCACCGCCGCATCCCGCTCGCCGGTCACCGGAGTCACCTAGTGCAG,9430 fluorescence intensity (a.u.)
8,TCTGAAGTTCGGGTCCATATTTTCCTTGCTACCAACATCACGGAGTCACCTAGTGCAG,9610 fluorescence intensity (a.u.)
9,CGCACACGCCATGTACACCAGTATTGTACGCTTAACGCGTCGGAGTCACCTAGTGCAG,10200 fluorescence intensity (a.u.)
10,CACAGATGAACCCTACTCTATTTTGCACCCGCTGCGGCTCCGGAGTCACCTAGTGCAG,8110 fluorescence intensity (a.u.)
11,GTCCTCTTTCAATTATATAATATGTTACTTTTGATCACAACGGAGTCACCTAGTGCAG,9180 fluorescence intensity (a.u.)
12,TTTGAGTTAATGGTTTGCTTGTTTGATCTATCTTAAATCCCGGAGTCACCTAGTGCAG,9780 fluorescence intensity (a.u.)
13,GATTGGTTTCTCCTCCGGTTTTCCCCATCGATCCCCTTCTCGGAGTCACCTAGTGCAG,16100 fluorescence intensity (a.u.)
14,AATCACATTCGTTCTTCTCCACCCAGTGCTACAACAACCTCGGAGTCACCTAGTGCAG,8440 fluorescence intensity (a.u.)
15,TTGTTCTTTTTTAGGTCTTGCTTAGTTCCAAAGTTTTTTTCGGAGTCACCTAGTGCAG,11000 fluorescence intensity (a.u.)
16,CTTCTTCTTCTTCTTCGTCTTCGTCACCGCCAGCCAACCACGGAGTCACCTAGTGCAG,9560 fluorescence intensity (a.u.)
17,TTTTTTCCTCTCTGTGTGTGTTTGACTGTACGGAATGAGACGGAGTCACCTAGTGCAG,9980 fluorescence intensity (a.u.)
18,TTGCTTGTTTTTCTTTTTGGGCATACTGATCTTAATTTTTCGGAGTCACCTAGTGCAG,10000 fluorescence intensity (a.u.)
19,CCACGCCGAAACGCACGTCTCGTCGTCTTCATCATCGTCGCGGAGTCACCTAGTGCAG,9700 fluorescence intensity (a.u.)
20,AAACTCATGTACTCTGTTGTGCTATTCTTTTTCATGAACTCGGAGTCACCTAGTGCAG,12000 fluorescence intensity (a.u.)
21,AGTTTGCAAGCAAGATCTGTACAGCCACGCACTTCTTATTCGGAGTCACCTAGTGCAG,8550 fluorescence intensity (a.u.)

row,Sequence,binding signal
1,AGAGAGAGAGAGGGGTGGCATTGTGGAGGAGGTGGGCGGCCGGAGTCACCTAGTGCAG,8880 fluorescence intensity (a.u.)
2,CGTGAAGACTCGGGTGGGGTTGGTGGTGGCTGTGTGTAGCCGGAGTCACCTAGTGCAG,12500 fluorescence intensity (a.u.)
3,GTCGTCGGCTCTTGGATGCTAAAACTAGATATTCCCCTGTCGGAGTCACCTAGTGCAG,8290 fluorescence intensity (a.u.)
4,CTTAAGTTATTATCTACTGTACTTTAAATATAATTTTTCGCGGAGTCACCTAGTGCAG,8350 fluorescence intensity (a.u.)
5,ATGCTTCCACTGTATGCTTGTTTCATCAGTTTCGCAGATGCGGAGTCACCTAGTGCAG,9380 fluorescence intensity (a.u.)
6,GGGGCCCATGTAGTGTGTCGCCGGCTTGCGTCCGCCGCCGCGGAGTCACCTAGTGCAG,8050 fluorescence intensity (a.u.)
7,CCTCTCTTCCGTTGCGATTCCTTGTACGTTTCCTTCCCCTCGGAGTCACCTAGTGCAG,9490 fluorescence intensity (a.u.)
8,AGCTGTTACCTGTTCATTTTCTGGTGCTAAGTTTTTGACACGGAGTCACCTAGTGCAG,8910 fluorescence intensity (a.u.)
9,GTTCTTGGTTCCTGCATTTCTTTTCTTTTTTGCCTTTGTTCGGAGTCACCTAGTGCAG,11300 fluorescence intensity (a.u.)
10,CCGCTACTACTGCTTGTCTGCTGCTGCAGCTGCTGTTATTCGGAGTCACCTAGTGCAG,9890 fluorescence intensity (a.u.)
11,CTCTAGTATCCTTGTGTTCCTCGTCGTCGGCGACGAGGACCGGAGTCACCTAGTGCAG,8460 fluorescence intensity (a.u.)
12,CTCCGTCGCTTCATGTTCAACAAGTTAATTCACACTTTAACGGAGTCACCTAGTGCAG,10700 fluorescence intensity (a.u.)
13,ATGGCCGCCGCTTTTCCTCATTTTTGCTCGATCCACTGCTCGGAGTCACCTAGTGCAG,10600 fluorescence intensity (a.u.)
14,CTTCACCTTCTCCTTCTCCAACATCACCATCACCCGGCAACGGAGTCACCTAGTGCAG,8950 fluorescence intensity (a.u.)
15,TTTTAATTAGAATCTAATTAATTGTGGGTTGTTTCAGCTTCGGAGTCACCTAGTGCAG,8340 fluorescence intensity (a.u.)
16,ATTATCTCCAAACGGTTTGATTTCATGCTCTTCGTACAATCGGAGTCACCTAGTGCAG,8520 fluorescence intensity (a.u.)
17,AGTAAGAATTCTGCATGTTCCCTGCTCCACATTACTACATCGGAGTCACCTAGTGCAG,8660 fluorescence intensity (a.u.)
18,ACCTCGATCAGCACCATTTGCACGCTTAACCACATGATGGCGGAGTCACCTAGTGCAG,8710 fluorescence intensity (a.u.)
19,CTCGCGAATTAGTCCAAGTTTATGGAATGGGTTTTGTAATCGGAGTCACCTAGTGCAG,8780 fluorescence intensity (a.u.)
20,ATACCCGTCTTTTCCTTCCCTTTCATCAATTGCCTCTTGTCGGAGTCACCTAGTGCAG,11500 fluorescence intensity (a.u.)
21,CCACCTCGTTTTATGTAAAACACTTAATCTTCAACTTCAGCGGAGTCACCTAGTGCAG,8860 fluorescence intensity (a.u.)

# Exported bar-delimited: entries from further up
row | Sequence | binding signal
4 | GTTGCGGGGTGGGTGGTGGCGTTGCGGGAGGAGGAGGGAGCGGAGTCACCTAGTGCAG | 23100 fluorescence intensity (a.u.)
5 | AAATGTAGCGTCAAGTAACACGTGTATTCACATTTACGATCGGAGTCACCTAGTGCAG | 8240 fluorescence intensity (a.u.)
6 | GGGTAACCAACAAAACCATACTGCGACACTCCACACCGTTCGGAGTCACCTAGTGCAG | 8090 fluorescence intensity (a.u.)
7 | GACCTCACCGTCTCACCGCCGCATCCCGCTCGCCGGTCACCGGAGTCACCTAGTGCAG | 9430 fluorescence intensity (a.u.)

# Further records

row,Sequence,binding signal
1,GACGGCGAGGTGAGGCGGGAGGCGGTGGTGGTGGAGGAGGCGGAGTCACCTAGTGCAG,11800 fluorescence intensity (a.u.)
2,TGCATTGGATTTCGCCATGGCTCCCAGTCTGGCAGGATTTCGGAGTCACCTAGTGCAG,8160 fluorescence intensity (a.u.)
3,CCCACCTTGCCTCACCATTGTACGTACCATCTACTCCTGGCGGAGTCACCTAGTGCAG,10600 fluorescence intensity (a.u.)
4,GGAGCGCTGGGAGGAAGGGCGTAGGGAGGGAGGGGTGAGGCGGAGTCACCTAGTGCAG,11600 fluorescence intensity (a.u.)
5,TGCAAGGCCAATACACGTACAATCCACAGCCCAATTAATCCGGAGTCACCTAGTGCAG,8040 fluorescence intensity (a.u.)
6,GTGGCAAGTTGGGCGCGTAAGAGATGCGGAGGGAGGGGAACGGAGTCACCTAGTGCAG,8520 fluorescence intensity (a.u.)
7,TGTCCAATTGTCTGTCCAAAACTGTGTGTCCACCCCATCACGGAGTCACCTAGTGCAG,8270 fluorescence intensity (a.u.)
8,CGTGGTTTCGATTTTTCTGCCCAAGTTTTGTAACTTAGCTCGGAGTCACCTAGTGCAG,8180 fluorescence intensity (a.u.)
9,AAAAACCGCGCGCCGCGGCTCTCTCGACCACTTCCATTCCCGGAGTCACCTAGTGCAG,10100 fluorescence intensity (a.u.)
10,TCCCTAAATGTTTAACGTCGTTGACTTTTTAAAATATGTTCGGAGTCACCTAGTGCAG,21000 fluorescence intensity (a.u.)
11,AGTTTCAGTAGCCTCGCCGATCGACTTGCCACACCGCCGTCGGAGTCACCTAGTGCAG,9260 fluorescence intensity (a.u.)
12,CGAGTAAATTCACTCTCTTTTTTCCCTTTCTCATCATCTCCGGAGTCACCTAGTGCAG,9450 fluorescence intensity (a.u.)
13,ACATGCTTCATATTCTCATGGACTTTCATCCTTCGTAAATCGGAGTCACCTAGTGCAG,8970 fluorescence intensity (a.u.)
14,TTTTCTTTTTTATTTTAATTGATTCAATGATCTTTGTGCTCGGAGTCACCTAGTGCAG,8070 fluorescence intensity (a.u.)
15,CCAAACATACCCATTATCACATATCGCAGCCGCCCATGTTCGGAGTCACCTAGTGCAG,8290 fluorescence intensity (a.u.)
16,TTCTCGTCATCTTGGTCTGCTCCTACGTCTCCGCCCATGTCGGAGTCACCTAGTGCAG,8800 fluorescence intensity (a.u.)
17,TCTTTTTTTAGTCAATTCCATATTTTGTACTGATTAAATTCGGAGTCACCTAGTGCAG,10100 fluorescence intensity (a.u.)
18,CTGAGCAAATTCATGGTGGGAAAAGGGGTTTTCATGTAATCGGAGTCACCTAGTGCAG,10700 fluorescence intensity (a.u.)
19,AGCATGTGTAGAGGGAGTTGTCGTTTTCTGAGGAGCAAGACGGAGTCACCTAGTGCAG,8660 fluorescence intensity (a.u.)
20,CCATCGGAGCACCGGCGCCCCTTCTCTCTTTCTCTCTGCTCGGAGTCACCTAGTGCAG,8820 fluorescence intensity (a.u.)
21,TGGTTGTTTTTTTCTTGTGCTCCCTGTATTGGATATGCTACGGAGTCACCTAGTGCAG,8090 fluorescence intensity (a.u.)

row,Sequence,binding signal
1,AGCTCACTAACCTGCTCTTTCCTGGTCCTGGAGGTCTTTGCGGAGTCACCTAGTGCAG,8870 fluorescence intensity (a.u.)
2,CGTGCGACGCCACTGCTCACTTTGTCTCGACCACTGTCCGCGGAGTCACCTAGTGCAG,9320 fluorescence intensity (a.u.)
3,CCCTTCACAGTTCCTTTGCCTGTCCCCGGTAATGGTCTTTCGGAGTCACCTAGTGCAG,9040 fluorescence intensity (a.u.)
4,TTATACCTTCTTTCTTTGTAAGCTACCGTGTCGATCTTTTCGGAGTCACCTAGTGCAG,8400 fluorescence intensity (a.u.)
5,TCTTTCCTGCGTACTATATCACATATTCGAGGCTCGAAACCGGAGTCACCTAGTGCAG,8590 fluorescence intensity (a.u.)
6,CACCAACTAATTTCATTGGAATTTTGTGGGAGGTGGAGGGCGGAGTCACCTAGTGCAG,9220 fluorescence intensity (a.u.)
7,CGGTTCGCTTCCCTTTCTCGTCAGAAGGCTCACTCCGTCTCGGAGTCACCTAGTGCAG,8360 fluorescence intensity (a.u.)
8,ATATACCGTACCCCATCGCCATCGATCGGTGTCATTCATTCGGAGTCACCTAGTGCAG,8040 fluorescence intensity (a.u.)
9,CAATGTACCATACTCATCTTTTTCGTTTATGCTTATACCTCGGAGTCACCTAGTGCAG,9500 fluorescence intensity (a.u.)
10,CTCCCGCCGCATTTGCATCCTAATCCATCCCATCTGGCCTCGGAGTCACCTAGTGCAG,10600 fluorescence intensity (a.u.)
11,TACTTTTCCAACCCAACCTCAAACACAACCAATCCACCTCCGGAGTCACCTAGTGCAG,8080 fluorescence intensity (a.u.)
12,ATGGCGACTTTGGATTCTCCAGCCTCTTGTGTTTGCCTTTCGGAGTCACCTAGTGCAG,9480 fluorescence intensity (a.u.)
13,GAGCGTGGGGCGGAGATTTTCGACTCGTCTTCCGTTACGGCGGAGTCACCTAGTGCAG,8930 fluorescence intensity (a.u.)
14,CTCAACATATTTCCTCCAATGTTCCTGCCTGTGGCTCACTCGGAGTCACCTAGTGCAG,8640 fluorescence intensity (a.u.)
15,CATCACTCCTACCTCGTGTCTCTGACACCCTGACCACACGCGGAGTCACCTAGTGCAG,9400 fluorescence intensity (a.u.)
16,GGCGGCGGCGGCGACTCGGCTCTCGCTTCCACGCATCCATCGGAGTCACCTAGTGCAG,9160 fluorescence intensity (a.u.)
17,AGTCCATTTTTCAGTAGTCCTCATGGCTTGTAGGTTTTCACGGAGTCACCTAGTGCAG,9510 fluorescence intensity (a.u.)
18,ATACACACTTCAGTCACTCGGTAGGCCACTCCGTACGGCACGGAGTCACCTAGTGCAG,8510 fluorescence intensity (a.u.)
19,CATTGAATTTGCACTAGCATCTCTTCTATTTATATCTACTCGGAGTCACCTAGTGCAG,9110 fluorescence intensity (a.u.)
20,AAGGGAGGGTTTTTATGAAATTTGTACCACCTACTTTTTGCGGAGTCACCTAGTGCAG,8580 fluorescence intensity (a.u.)
21,CCATTTTTTCACTTTAGTGTTGCGCAGTAGTACACCACCACGGAGTCACCTAGTGCAG,8280 fluorescence intensity (a.u.)
